PubChem BioAssay AID504804 – Drosophila RNAi Screening Center – 2011

Purpose: 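Fly genes whose loss lessens doxorubicin-driven cell death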 (primary screen)
Cell system: Drosophila Kc cells
Knock-down reagent: long dsRNA against Drosophila genes, 0.5 µg dsRNA per well
Time to read-out: 96 h (48 h knock-down, then 48 h drug)
Challenge: doxorubicin 5 µg/ml for 48 h, added 48 h after dsRNA
Measurement: 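Viability measured as cellular ATP by luminescence after 48 h knock-down then 48 h doxorubicin at 5 µg/ml; unnormalised plate counts for each replicate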
Reading the numbers: raw ATP luminescence: higher = more viable cells, protection from doxorubicin
Call rule: 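z-score of 2 or more over plate mean in both duplicates, retained only when retests and separate dsRNAs confirm the protection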
In all, the deposit lists about 19,000 reagents; this is an unselected part of those with a known target gene and a result. Over the whole deposit, 47 (0.25%) got an active call. 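Signals are raw, not normalised; exact z-scores behind calls not deposited; actives needed confirmation, so some wells reaching 2 SD are inactive.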 A number with no mark means an inactive call. Names joined by + are all predicted targets of the reagent.

| Target gene | amplicon | SD above plate mean | raw ATP luminescence, replicate 1 | raw ATP luminescence, replicate 2 |
| --- | --- | --- | --- | --- |
| CG10163 (GeneID 38728) | DRSC09710 | – | 1.08e5 | 99550 |
| CG31279 (GeneID 318657) | DRSC13158 | – | 1.54e5 | 1.77e5 |
| CG31769 (GeneID 318934) | DRSC01361 | – | 2.10e5 | 2.01e5 |
| vanin-like (GeneID 31551) | DRSC17440 | – | 1.64e5 | 1.78e5 |
| GstD9 (GeneID 41502) | DRSC14185 | – | 57380 | 49817 |
| LanB2 (GeneID 39118) | DRSC11208 | – | 38903 | 37147 |
| CG7829 (GeneID 43522) | DRSC16322 | – | 80510 | 51760 |
| CG42523 (GeneID 8674082) | DRSC00251 | – | 2.63e5 | 2.46e5 |
| CG3880 (GeneID 37957) | DRSC04428 | – | 55837 | 61933 |
| sip1 (GeneID 44238) | DRSC03609 | – | 28867 | 27893 |
| Mmp1 (GeneID 37949) | DRSC04493 | – | 58370 | 63170 |
| CG33992 (retired record) + CG43755 | DRSC00012 | – | 2.51e5 | 2.60e5 |
| CG13258 (GeneID 34959) | DRSC02244 | – | 51273 | 79377 |
| Rca1 (GeneID 33959) | DRSC03407 | – | 78023 | 55523 |
| AstC (GeneID 34537) | DRSC02403 | – | 40763 | 86800 |
| CG3280 (retired record) (GeneID 39117) | DRSC10356 | – | 71180 | 63860 |
| spz5 (GeneID 38350) | DRSC08645 | – | 74050 | 60817 |
| asRNA:CR42547 + CG15674 | DRSC04264 | – | 68163 | 62397 |
| Tsp42Ed (GeneID 35613) | DRSC05940 | – | 39960 | 83513 |
| CG7079 (GeneID 42488) | DRSC16192 | – | 87310 | 62770 |
| CG43736 + CG33692 (retired record) | DRSC18370 | – | 31250 | 37780 |
| CG43736 + CG33692 (retired record) | DRSC18371 | – | 46880 | 54380 |
| CG4610 (GeneID 37571) | DRSC04477 | – | 80310 | 53857 |
| CG8726 (GeneID 35758) | DRSC07250 | – | 66250 | 60583 |
| CG31221 (GeneID 42325) | DRSC14335 | – | 52550 | 47290 |
| CG31221 (GeneID 42325) | DRSC16217 | – | 73410 | 93630 |
| Phae1 (GeneID 34637) | DRSC02554 | – | 55683 | 76350 |
| CG4783 (GeneID 42381) | DRSC15644 | – | 1.94e5 | 2.02e5 |
| Dlip2 (GeneID 40579) | DRSC12346 | – | 60397 | 42320 |
| CG8562 (GeneID 38828) | DRSC10995 | – | 1.00e5 | 1.00e5 |
| ato (GeneID 40975) | DRSC16904 | – | 54473 | 48660 |
| CG13978 (GeneID 43303) | DRSC14720 | – | 54430 | 58900 |
| Cyp6d5 (GeneID 41706) | DRSC16634 | – | 53883 | 33570 |
| Act79B (GeneID 40444) | DRSC11604 | – | 67760 | 66903 |
| Fur1 (GeneID 47220) | DRSC13707 | – | 2.54e5 | 2.46e5 |
| CG5062 (GeneID 31435) | DRSC18385 | – | 41590 | 41630 |
| Arpc1 (GeneID 34793) | DRSC03438 | – | 66487 | 53590 |
| Nup75 (GeneID 37078) | DRSC06947 | – | 42023 | 70080 |
| CG12219 (GeneID 31572) | DRSC17829 | – | 37810 | 40330 |
| sloth2 + sloth1 | DRSC17922 | – | 37720 | 46470 |
| sloth2 + sloth1 | DRSC17923 | – | 49480 | 52900 |
| CG3163 (GeneID 37836) | DRSC04341 | – | 58093 | 49277 |
| CG5446 (GeneID 34655) | DRSC02862 | – | 71903 | 73907 |
| dlg1 (GeneID 32083) | DRSC18895 | – | 85503 | 70663 |
| dlg1 (GeneID 32083) | DRSC18896 | – | 2.35e5 | 2.08e5 |
| dlg1 (GeneID 32083) | DRSC19767 | – | 2.87e5 | 2.57e5 |
| Der-2 (GeneID 42005) | DRSC15021 | – | 90980 | 75360 |
| CG8541 (GeneID 38838) | DRSC10989 | – | 88563 | 79097 |
| CG3308 (GeneID 42527) | DRSC15474 | – | 47490 | 42310 |
| ppk18 (GeneID 34295) | DRSC02216 | – | 40317 | 89120 |
| CG5989 (GeneID 38984) | DRSC10565 | – | 38710 | 29933 |
| nAChRbeta3 (GeneID 33228) | DRSC00325 | – | 1.03e5 | 66300 |
| mgl (GeneID 8674055) | DRSC17800 | – | 3.52e5 | 3.19e5 |
| mgl (GeneID 8674055) | DRSC17859 | – | 3.61e5 | 3.60e5 |
| mgl (GeneID 8674055) | DRSC18004 | – | 3.23e5 | 3.28e5 |
| CG2126 (GeneID 43748) | DRSC15418 | – | 59030 | 28360 |
| Sk1 (GeneID 32089) | DRSC19774 | – | 3.06e5 | 2.74e5 |

Part of the list above, set out differently.
dlg1 (GeneID 32083) [DRSC18895]: raw ATP luminescence, replicate 1 = 85503; raw ATP luminescence, replicate 2 = 70663
dlg1 (GeneID 32083) [DRSC18896]: raw ATP luminescence, replicate 1 = 2.35e5; raw ATP luminescence, replicate 2 = 2.08e5
dlg1 (GeneID 32083) [DRSC19767]: raw ATP luminescence, replicate 1 = 2.87e5; raw ATP luminescence, replicate 2 = 2.57e5
Der-2 (GeneID 42005) [DRSC15021]: raw ATP luminescence, replicate 1 = 90980; raw ATP luminescence, replicate 2 = 75360
CG8541 (GeneID 38838) [DRSC10989]: raw ATP luminescence, replicate 1 = 88563; raw ATP luminescence, replicate 2 = 79097
CG3308 (GeneID 42527) [DRSC15474]: raw ATP luminescence, replicate 1 = 47490; raw ATP luminescence, replicate 2 = 42310
ppk18 (GeneID 34295) [DRSC02216]: raw ATP luminescence, replicate 1 = 40317; raw ATP luminescence, replicate 2 = 89120
CG5989 (GeneID 38984) [DRSC10565]: raw ATP luminescence, replicate 1 = 38710; raw ATP luminescence, replicate 2 = 29933

Next entries follow:
| Target gene | amplicon | SD above plate mean | raw ATP luminescence, replicate 1 | raw ATP luminescence, replicate 2 |
| --- | --- | --- | --- | --- |
| svp (GeneID 41491) | DRSC12899 | – | 2.29e5 | 1.88e5 |
| svp (GeneID 41491) | DRSC15311 | – | 18100 | 20087 |
| svp (GeneID 41491) | DRSC17075 | – | 59280 | 48600 |
| CG5033 (GeneID 37036) | DRSC07410 | – | 62297 | 74970 |
| CG34148 + P5CDh2 | DRSC13519 | – | 1.80e5 | 2.18e5 |
| Galt (GeneID 33935) | DRSC03161 | – | 1.07e5 | 80347 |
| Prp3 (GeneID 40172) | DRSC10912 | – | 68520 | 64340 |
| Prosbeta1 (GeneID 46058) | DRSC07159 | – | 24570 | 32923 |
| Sec61alpha (GeneID 33905) | DRSC03256 | – | 1.18e5 | 77857 |
| cutlet (GeneID 44637) | DRSC00284 | – | 19420 | 20553 |
| mRpS29 (GeneID 37563) | DRSC04398 | – | 66177 | 66743 |
| CG8736 (GeneID 35841) | DRSC07255 | – | 29823 | 54530 |
| ppk31 (GeneID 318575) | DRSC13811 | – | 1.91e5 | 1.80e5 |
| Oseg4 (GeneID 38219) | DRSC08548 | – | 79097 | 73960 |
| SmD1 (GeneID 44668) | DRSC09800 | – | 79720 | 57807 |
| pic (GeneID 41611) | DRSC16639 | – | 38760 | 22330 |
| capu (GeneID 33611) | DRSC00208 | – | 2.84e5 | 3.48e5 |
| capu (GeneID 33611) | DRSC00209 | – | 2.90e5 | 2.99e5 |
| capu (GeneID 33611) | DRSC00434 | – | 23143 | 30423 |
| capu (GeneID 33611) | DRSC00807 | – | 84447 | 54077 |
| dpn (GeneID 35800) | DRSC07605 | – | 50843 | 69150 |
| CG5098 (GeneID 37063) | DRSC06915 | – | 60150 | 51813 |
| Sgs1 (GeneID 33701) | DRSC00787 | – | 21477 | 27800 |
| Sgs1 (GeneID 33701) | DRSC00848 | – | 2.61e5 | 3.12e5 |
| bchs (GeneID 33819) | DRSC03126 | – | 40277 | 41783 |
| Pgant35A (GeneID 48775) | DRSC03557 | 2 to 3 SD above plate mean (active) | 93903 | 1.36e5 |
| CG1271 (GeneID 38364) | DRSC08290 | – | 37707 | 47150 |
| sub (GeneID 44870) | DRSC06125 | – | 66360 | 52067 |
| babo (GeneID 35900) | DRSC07581 | – | 44633 | 64017 |
| smo (GeneID 33196) | DRSC00837 | – | 95480 | 72970 |
| CG42390 (GeneID 42600) | DRSC15866 | – | 56687 | 28133 |
| CG17801 (GeneID 42144) | DRSC15273 | – | 46680 | 44690 |
| CG9257 (GeneID 35375) | DRSC03173 | – | 72937 | 69783 |
| CG9331 (GeneID 35347) | DRSC03206 | – | 65173 | 68657 |
| CG5676 (GeneID 34368) | DRSC02875 | – | 49443 | 71170 |
| Sec20 (GeneID 40724) | DRSC12295 | – | 76733 | 52960 |
| CG34169 (GeneID 5740400) | DRSC01579 | – | 3.15e5 | 2.71e5 |
| Grip75 (GeneID 34441) | DRSC03337 | – | 46327 | 90400 |
| salr (GeneID 34568) | DRSC03607 | – | 44297 | 81707 |
| CG33702 (GeneID 3771932) | DRSC08986 | – | 1.71e5 | 1.87e5 |
| Syt4 (GeneID 40876) | DRSC12606 | – | 61133 | 54120 |
| Dh44 (GeneID 41170) | DRSC12747 | – | 73130 | 65713 |
| Dh44 (GeneID 41170) | DRSC16409 | – | 64710 | 54730 |
| Obp93a (GeneID 42506) | DRSC15220 | – | 46600 | 62810 |
| Nil (GeneID 43185) | DRSC15953 | – | 59590 | 56840 |
| CG31562 (retired record) (GeneID 40753) | DRSC12273 | – | 67933 | 54397 |
| CG31562 (retired record) (GeneID 40753) | DRSC12274 | – | 65553 | 65417 |
| CG13046 (GeneID 39791) | DRSC09927 | – | 41527 | 26277 |
| qjt (GeneID 39952) | DRSC10060 | – | 45657 | 39430 |
| CG12420 (GeneID 41249) | DRSC14514 | – | 57053 | 45940 |
